Source: paper PMC10761734
No constants are given. Whether binding was seen depends on the method and setting. In cells and extracts the contact can be indirect. These calls come from enrichment with a bait or labelling near it, and not all partners need be listed.

The chains behind the UniProt entries cited, without tags or fusion partners.
UniProt Q86T03: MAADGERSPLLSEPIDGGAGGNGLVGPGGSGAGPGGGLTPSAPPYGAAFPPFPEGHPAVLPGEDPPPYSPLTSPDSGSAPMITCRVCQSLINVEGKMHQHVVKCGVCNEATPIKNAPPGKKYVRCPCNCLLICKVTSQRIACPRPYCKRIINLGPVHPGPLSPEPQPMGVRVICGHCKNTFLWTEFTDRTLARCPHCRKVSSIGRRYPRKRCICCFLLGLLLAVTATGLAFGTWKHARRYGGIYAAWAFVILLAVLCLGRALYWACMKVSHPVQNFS
UniProt Q8WUM4: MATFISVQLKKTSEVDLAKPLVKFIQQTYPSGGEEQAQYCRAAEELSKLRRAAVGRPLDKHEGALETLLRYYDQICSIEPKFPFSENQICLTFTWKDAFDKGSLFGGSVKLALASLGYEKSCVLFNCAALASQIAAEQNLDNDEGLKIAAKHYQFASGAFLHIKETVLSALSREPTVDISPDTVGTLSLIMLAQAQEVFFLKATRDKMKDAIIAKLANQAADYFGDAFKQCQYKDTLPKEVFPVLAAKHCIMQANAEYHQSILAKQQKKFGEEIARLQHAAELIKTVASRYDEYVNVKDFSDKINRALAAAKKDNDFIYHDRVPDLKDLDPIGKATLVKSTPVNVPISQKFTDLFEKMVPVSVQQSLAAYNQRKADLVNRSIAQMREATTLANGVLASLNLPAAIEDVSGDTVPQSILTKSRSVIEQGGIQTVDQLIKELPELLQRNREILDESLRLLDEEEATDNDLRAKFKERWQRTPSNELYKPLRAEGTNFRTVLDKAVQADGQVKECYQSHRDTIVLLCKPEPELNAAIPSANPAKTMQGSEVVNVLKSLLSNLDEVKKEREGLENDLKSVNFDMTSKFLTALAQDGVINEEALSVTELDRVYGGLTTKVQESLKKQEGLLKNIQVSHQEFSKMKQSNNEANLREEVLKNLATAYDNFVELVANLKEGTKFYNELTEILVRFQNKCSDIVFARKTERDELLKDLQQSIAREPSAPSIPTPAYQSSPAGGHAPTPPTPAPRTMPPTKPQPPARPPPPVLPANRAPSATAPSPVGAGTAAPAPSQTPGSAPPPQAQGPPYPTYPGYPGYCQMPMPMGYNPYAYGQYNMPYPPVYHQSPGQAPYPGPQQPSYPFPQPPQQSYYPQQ
UniProt Q9NZZ3: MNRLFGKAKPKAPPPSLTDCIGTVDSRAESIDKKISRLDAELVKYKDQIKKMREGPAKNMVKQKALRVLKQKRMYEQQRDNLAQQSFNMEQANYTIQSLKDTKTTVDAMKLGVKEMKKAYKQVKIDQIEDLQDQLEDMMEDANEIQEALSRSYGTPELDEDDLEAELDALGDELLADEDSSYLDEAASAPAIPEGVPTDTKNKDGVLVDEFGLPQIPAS
UniProt Q9Y4G2: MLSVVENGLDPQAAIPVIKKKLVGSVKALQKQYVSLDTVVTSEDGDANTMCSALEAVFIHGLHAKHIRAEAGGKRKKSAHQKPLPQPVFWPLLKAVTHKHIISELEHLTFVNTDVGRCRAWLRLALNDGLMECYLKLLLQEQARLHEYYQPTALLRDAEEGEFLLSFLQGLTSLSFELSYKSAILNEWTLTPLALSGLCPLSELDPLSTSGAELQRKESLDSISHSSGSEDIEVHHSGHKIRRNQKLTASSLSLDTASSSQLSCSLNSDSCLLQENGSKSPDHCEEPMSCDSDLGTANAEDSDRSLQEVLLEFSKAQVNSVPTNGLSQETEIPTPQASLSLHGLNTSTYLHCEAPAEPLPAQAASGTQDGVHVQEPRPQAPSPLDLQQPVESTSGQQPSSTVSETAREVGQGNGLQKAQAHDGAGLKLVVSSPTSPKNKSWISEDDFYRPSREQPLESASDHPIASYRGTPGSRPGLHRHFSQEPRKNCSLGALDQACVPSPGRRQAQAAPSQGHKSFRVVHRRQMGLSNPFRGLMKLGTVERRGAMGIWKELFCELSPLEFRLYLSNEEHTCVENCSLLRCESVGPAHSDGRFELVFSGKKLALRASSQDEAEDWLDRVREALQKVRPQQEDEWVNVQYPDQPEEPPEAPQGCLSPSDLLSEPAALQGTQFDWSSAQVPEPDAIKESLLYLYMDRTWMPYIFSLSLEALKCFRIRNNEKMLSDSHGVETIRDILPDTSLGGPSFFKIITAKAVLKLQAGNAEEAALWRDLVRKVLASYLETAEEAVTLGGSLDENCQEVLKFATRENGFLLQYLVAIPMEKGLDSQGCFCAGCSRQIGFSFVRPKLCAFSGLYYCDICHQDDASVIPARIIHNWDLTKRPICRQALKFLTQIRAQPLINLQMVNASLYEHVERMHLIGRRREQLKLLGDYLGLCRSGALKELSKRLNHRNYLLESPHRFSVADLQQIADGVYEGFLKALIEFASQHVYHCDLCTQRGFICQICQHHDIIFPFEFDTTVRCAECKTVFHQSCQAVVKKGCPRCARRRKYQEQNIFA
UniProt O14964: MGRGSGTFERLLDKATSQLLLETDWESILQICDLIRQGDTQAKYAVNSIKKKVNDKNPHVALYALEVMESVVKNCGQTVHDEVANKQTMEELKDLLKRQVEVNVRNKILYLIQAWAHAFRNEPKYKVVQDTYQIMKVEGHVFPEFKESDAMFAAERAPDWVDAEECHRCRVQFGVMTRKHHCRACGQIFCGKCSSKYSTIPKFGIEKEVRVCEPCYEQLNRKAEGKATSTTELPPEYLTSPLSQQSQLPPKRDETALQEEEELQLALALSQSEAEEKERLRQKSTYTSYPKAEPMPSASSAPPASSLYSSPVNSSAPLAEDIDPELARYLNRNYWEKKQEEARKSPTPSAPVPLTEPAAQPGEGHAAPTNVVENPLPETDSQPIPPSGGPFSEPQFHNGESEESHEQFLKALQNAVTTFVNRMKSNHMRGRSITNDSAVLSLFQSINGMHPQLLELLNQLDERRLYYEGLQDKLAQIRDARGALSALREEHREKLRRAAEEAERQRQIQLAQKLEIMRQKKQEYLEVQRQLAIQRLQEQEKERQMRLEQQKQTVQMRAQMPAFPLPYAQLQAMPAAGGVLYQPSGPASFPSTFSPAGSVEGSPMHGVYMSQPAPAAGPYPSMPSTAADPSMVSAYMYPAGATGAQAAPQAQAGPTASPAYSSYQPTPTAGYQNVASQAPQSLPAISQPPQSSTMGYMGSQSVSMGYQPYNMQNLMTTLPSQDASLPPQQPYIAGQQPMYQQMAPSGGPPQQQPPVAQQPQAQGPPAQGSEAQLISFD
UniProt P46934: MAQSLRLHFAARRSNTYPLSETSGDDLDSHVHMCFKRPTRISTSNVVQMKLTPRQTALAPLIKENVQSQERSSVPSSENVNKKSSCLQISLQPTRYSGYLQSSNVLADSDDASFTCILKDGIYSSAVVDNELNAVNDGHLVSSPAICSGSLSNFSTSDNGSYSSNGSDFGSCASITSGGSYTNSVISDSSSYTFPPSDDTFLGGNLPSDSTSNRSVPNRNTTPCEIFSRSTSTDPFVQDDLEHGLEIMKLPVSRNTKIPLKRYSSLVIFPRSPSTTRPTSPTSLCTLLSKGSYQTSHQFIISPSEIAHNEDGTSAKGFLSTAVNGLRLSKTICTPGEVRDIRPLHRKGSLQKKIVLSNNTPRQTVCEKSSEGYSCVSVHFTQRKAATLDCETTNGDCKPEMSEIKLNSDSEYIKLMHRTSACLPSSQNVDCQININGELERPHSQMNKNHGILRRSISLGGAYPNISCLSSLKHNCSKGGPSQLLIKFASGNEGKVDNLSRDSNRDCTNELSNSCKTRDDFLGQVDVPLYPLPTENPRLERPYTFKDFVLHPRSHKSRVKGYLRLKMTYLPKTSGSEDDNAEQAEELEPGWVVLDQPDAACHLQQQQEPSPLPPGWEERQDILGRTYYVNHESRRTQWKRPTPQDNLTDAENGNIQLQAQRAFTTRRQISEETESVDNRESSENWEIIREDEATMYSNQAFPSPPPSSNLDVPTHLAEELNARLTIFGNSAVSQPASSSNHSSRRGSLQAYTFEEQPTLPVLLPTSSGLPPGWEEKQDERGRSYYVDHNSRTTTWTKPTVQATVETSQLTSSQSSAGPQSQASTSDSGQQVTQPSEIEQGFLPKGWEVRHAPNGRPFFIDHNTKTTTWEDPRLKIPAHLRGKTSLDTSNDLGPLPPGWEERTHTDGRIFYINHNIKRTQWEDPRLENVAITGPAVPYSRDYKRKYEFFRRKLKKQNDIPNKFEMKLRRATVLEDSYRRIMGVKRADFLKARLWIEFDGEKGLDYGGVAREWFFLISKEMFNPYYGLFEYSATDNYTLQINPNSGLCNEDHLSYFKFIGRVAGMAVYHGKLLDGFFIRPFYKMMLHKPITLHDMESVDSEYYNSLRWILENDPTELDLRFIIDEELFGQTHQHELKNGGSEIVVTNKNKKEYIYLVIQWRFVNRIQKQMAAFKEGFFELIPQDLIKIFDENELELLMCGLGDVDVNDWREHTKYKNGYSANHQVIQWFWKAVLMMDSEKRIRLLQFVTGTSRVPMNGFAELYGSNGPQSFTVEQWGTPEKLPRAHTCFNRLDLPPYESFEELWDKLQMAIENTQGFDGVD
UniProt Q9HCE7: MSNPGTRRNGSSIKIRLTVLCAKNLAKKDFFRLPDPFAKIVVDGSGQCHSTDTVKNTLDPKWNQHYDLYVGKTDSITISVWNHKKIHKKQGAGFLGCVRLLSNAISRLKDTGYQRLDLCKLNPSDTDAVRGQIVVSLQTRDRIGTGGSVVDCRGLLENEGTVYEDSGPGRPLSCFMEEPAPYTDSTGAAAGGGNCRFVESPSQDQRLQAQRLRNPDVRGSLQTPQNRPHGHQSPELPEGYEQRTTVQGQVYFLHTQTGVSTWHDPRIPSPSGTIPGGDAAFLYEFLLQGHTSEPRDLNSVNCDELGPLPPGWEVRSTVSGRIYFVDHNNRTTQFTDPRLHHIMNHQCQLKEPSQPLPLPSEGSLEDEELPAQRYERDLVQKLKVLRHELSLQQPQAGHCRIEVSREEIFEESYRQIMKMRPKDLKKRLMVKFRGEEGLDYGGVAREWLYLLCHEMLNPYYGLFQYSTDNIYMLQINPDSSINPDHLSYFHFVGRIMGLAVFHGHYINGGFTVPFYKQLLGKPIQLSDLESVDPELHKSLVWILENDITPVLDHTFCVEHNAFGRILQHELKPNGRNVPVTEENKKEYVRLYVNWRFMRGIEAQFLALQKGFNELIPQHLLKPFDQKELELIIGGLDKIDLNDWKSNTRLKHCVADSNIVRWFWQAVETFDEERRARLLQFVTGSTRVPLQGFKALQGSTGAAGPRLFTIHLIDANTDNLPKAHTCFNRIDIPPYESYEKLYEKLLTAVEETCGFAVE
UniProt Q9HAU4: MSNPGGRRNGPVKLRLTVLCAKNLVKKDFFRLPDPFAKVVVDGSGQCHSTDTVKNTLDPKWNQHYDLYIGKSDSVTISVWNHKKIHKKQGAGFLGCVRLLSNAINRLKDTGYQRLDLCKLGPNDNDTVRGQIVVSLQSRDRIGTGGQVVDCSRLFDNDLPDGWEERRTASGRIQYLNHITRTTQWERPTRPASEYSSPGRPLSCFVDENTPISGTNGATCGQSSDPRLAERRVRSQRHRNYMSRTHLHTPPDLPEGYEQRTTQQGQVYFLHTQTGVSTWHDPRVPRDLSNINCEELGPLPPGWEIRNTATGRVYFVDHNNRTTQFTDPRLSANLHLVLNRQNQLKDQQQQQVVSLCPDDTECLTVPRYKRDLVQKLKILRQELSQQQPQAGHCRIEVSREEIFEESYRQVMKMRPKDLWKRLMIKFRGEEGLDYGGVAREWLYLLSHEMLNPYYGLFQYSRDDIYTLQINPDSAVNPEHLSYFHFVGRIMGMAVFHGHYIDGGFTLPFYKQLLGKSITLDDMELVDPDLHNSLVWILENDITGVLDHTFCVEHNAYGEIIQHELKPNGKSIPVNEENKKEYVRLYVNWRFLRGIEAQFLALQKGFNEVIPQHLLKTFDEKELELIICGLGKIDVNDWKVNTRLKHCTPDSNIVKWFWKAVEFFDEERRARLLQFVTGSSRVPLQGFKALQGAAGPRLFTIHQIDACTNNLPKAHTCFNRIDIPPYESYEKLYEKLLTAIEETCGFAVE

Target: TMEM55B-GFP-WT full length (FL) (human) (UniProt Q86T03)
Test: affinity purification with mass spectrometry; U2OS cells infected with adenovirus expressing TMEM55B-WT-GFP or TMEM55B-P66A-GFP, with or without 300 uM NaAsO2 for 2 h; lysates immunoprecipitated with GFP beads, SDS-PAGE, gel bands digested, Orbitrap Fusion Lumos

Row | binding | Substance
1 | binds | ALIX (from UniProt Q8WUM4 1-868)
2 | binds | CHMP5 (from UniProt Q9NZZ3 1-219)
3 | binds | PLEKHM1 (Pleckstrin homology domain family M member 1), endogenous (from UniProt Q9Y4G2 1-1056)

The remaining lines, values behind:

Row | Substance | binding
4 | HRS (from UniProt O14964 1-777) | binds
5 | NEDD4 (from UniProt P46934 1-1319) (enzyme) | binds
6 | SMURF1 (from UniProt Q9HCE7 1-757) (enzyme) | binds
7 | SMURF2 (from UniProt Q9HAU4 1-748) (enzyme) | binds
